In paper PMC3218940:
Results are given in words; binding and its absence hold for the method and conditions named. In cells and extracts the contact can be indirect. Some binding calls cover weakened binding; strength is not graded here.

The chains behind the UniProt entries cited, without tags or fusion partners.
UniProt P08047: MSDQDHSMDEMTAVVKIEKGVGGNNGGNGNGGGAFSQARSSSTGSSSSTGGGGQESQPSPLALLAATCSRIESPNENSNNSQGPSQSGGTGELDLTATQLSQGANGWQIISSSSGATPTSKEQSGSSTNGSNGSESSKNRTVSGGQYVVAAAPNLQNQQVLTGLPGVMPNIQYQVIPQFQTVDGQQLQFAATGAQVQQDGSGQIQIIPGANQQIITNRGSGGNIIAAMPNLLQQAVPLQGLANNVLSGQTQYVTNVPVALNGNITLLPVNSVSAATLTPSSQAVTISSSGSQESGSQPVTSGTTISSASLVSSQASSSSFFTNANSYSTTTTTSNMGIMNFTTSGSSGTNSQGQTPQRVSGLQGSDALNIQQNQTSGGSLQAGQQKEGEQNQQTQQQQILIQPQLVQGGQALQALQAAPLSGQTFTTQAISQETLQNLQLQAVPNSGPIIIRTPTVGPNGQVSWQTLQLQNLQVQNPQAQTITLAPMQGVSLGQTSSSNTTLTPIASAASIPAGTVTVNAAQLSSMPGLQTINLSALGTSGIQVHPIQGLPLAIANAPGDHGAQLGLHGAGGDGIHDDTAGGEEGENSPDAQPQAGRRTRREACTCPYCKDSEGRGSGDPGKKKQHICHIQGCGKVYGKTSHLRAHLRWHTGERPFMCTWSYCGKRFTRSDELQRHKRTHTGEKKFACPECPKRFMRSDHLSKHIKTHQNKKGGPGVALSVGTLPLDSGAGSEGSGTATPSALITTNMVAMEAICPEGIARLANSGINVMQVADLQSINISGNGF

Tests used:
[1] = target: topoisomerase IIα (human (endogenous in HME cells)) (UniProt P11388); experiment: co-IP; total cellular proteins of sonicated HME cells synchronised in G0/G1, S, G2/M and M/G1; immunoprecipitated with anti-Cdc7, anti-geminin, anti-Sp1 (negative control) or anti-TopoIIα antibodies, then immunoblotted
[2] = target: cell division cycle 7 (human (endogenous in HME cells)) (UniProt O00311); experiment: as above
[3] = target: Sp1 (human (endogenous in HME cells)) (UniProt P08047); experiment: as above
[4] = target: topoisomerase IIα (human (endogenous in HME cells)) (UniProt P11388); experiment: co-IP; 1 mg chromatin of HME or induced Gem9 cells (72 hours), also of G2/M, M or M/G1 cells; immunoprecipitated with anti-geminin, anti-Sp1 or anti-TopoIIα antibody, then immunoblotted
[5] = target: T1, geminin (human (endogenous in HME cells)) (UniProt O75496); experiment: as above
T1 sequence: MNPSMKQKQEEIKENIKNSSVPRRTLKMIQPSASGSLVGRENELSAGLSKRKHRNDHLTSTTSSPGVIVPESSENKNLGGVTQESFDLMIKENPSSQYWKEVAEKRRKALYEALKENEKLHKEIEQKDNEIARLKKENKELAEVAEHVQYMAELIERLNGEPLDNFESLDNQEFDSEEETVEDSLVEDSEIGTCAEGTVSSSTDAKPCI

[6] = target: Sp1 (human (endogenous in HME cells)) (UniProt P08047); experiment: as above
[7] = target: T2, topoisomerase IIα (human (endogenous in HME cells)), P11388; experiment: co-IP; total cellular proteins of sonicated HME cells synchronised in G0/G1, S, G2/M and M/G1; immunoprecipitated with anti-Cdc7, anti-geminin, anti-Sp1 (negative control) or anti-TopoIIα antibodies, then immunoblotted; settings: remark: other sources report otherwise
T2 chain: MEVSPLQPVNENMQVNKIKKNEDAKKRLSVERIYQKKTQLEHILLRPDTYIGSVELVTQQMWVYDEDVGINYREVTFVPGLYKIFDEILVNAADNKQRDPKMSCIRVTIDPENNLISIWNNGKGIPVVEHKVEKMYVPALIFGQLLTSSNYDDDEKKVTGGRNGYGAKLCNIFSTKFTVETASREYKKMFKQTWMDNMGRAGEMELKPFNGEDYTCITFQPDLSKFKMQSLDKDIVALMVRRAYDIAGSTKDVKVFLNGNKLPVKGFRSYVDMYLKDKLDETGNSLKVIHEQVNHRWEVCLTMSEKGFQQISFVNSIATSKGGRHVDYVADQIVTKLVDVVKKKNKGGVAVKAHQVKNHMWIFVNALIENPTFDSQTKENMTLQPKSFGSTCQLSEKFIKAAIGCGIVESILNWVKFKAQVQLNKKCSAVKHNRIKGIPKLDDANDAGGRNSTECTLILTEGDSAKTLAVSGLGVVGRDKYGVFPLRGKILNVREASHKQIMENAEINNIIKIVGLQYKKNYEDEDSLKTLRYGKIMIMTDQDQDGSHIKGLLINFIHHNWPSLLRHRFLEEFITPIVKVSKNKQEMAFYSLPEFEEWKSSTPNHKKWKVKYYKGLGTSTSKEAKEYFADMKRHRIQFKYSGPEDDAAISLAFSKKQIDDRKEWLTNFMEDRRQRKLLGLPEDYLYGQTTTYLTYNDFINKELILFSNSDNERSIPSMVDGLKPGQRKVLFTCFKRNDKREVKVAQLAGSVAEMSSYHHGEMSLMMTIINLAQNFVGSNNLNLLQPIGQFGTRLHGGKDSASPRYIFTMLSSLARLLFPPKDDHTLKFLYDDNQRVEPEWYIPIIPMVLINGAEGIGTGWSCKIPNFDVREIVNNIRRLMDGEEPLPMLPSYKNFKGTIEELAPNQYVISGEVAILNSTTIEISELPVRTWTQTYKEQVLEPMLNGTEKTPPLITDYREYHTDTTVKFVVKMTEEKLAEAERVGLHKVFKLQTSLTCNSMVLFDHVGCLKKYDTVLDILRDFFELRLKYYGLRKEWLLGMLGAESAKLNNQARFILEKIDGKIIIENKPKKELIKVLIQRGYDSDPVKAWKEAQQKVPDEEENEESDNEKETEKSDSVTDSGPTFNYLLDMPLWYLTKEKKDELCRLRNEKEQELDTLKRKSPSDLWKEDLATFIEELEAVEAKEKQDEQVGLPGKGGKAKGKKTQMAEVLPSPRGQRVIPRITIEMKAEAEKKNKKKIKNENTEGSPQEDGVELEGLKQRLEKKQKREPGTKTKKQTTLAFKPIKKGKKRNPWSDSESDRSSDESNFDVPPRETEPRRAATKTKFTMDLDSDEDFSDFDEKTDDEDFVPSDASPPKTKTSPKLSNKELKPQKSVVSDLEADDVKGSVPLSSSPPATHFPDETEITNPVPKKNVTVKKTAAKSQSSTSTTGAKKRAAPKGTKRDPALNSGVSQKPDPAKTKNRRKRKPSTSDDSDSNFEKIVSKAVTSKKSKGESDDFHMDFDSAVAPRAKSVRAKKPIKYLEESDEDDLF

B1: geminin (protein, UniProt O75496 1-209)
chain: T1 sequence
B1 was tested, and the binding [1] was “binds”, the binding [2] was “no binding” and the binding [3] was “no binding”.

B2: sentrin-specific protease SENP2 (enzyme, UniProt Q9HC62 1-589)
chain: MYRWLVRILGTIFRFCDRSVPPARALLKRRRSDSTLFSTVDTDEIPAKRPRLDCFIHQVKNSLYNAASLFGFPFQLTTKPMVTSACNGTRNVAPSGEVFSNSSSCELTGSGSWNNMLKLGNKSPNGISDYPKIRVTVTRDQPRRVLPSFGFTLNSEGCNRRPGGRRHSKGNPESSLMWKPQEQAVTEMISEESGKGLRRPHCTVEEGVQKEEREKYRKLLERLKESGHGNSVCPVTSNYHSSQRSQMDTLKTKGWGEEQNHGVKTTQFVPKQYRLVETRGPLCSLRSEKRCSKGKITDTETMVGIRFENESRRGYQLEPDLSEEVSARLRLGSGSNGLLRRKVSIIETKEKNCSGKERDRRTDDLLELTEDMEKEISNALGHGPQDEILSSAFKLRITRGDIQTLKNYHWLNDEVINFYMNLLVERNKKQGYPALHVFSTFFYPKLKSGGYQAVKRWTKGVNLFEQEIILVPIHRKVHWSLVVIDLRKKCLKYLDSMGQKGHRICEILLQYLQDESKTKRNSDLNLLEWTHHSMKPHEIPQQLNGSDCGMFTCKYADYISRDKPITFTQHQMPLFRKKMVWEILHQQLL
For B2, the binding [4] was “no binding”, the binding [5] was “binds” and the binding [6] was “no binding”.

B3: cell division cycle 7, O00311 1-574 (enzyme)
chain: MEASLGIQMDEPMAFSPQRDRFQAEGSLKKNEQNFKLAGVKKDIEKLYEAVPQLSNVFKIEDKIGEGTFSSVYLATAQLQVGPEEKIALKHLIPTSHPIRIAAELQCLTVAGGQDNVMGVKYCFRKNDHVVIAMPYLEHESFLDILNSLSFQEVREYMLNLFKALKRIHQFGIVHRDVKPSNFLYNRRLKKYALVDFGLAQGTHDTKIELLKFVQSEAQQERCSQNKSHIITGNKIPLSGPVPKELDQQSTTKASVKRPYTNAQIQIKQGKDGKEGSVGLSVQRSVFGERNFNIHSSISHESPAVKLMKQSKTVDVLSRKLATKKKAISTKVMNSAVMRKTASSCPASLTCDCYATDKVCSICLSRRQQVAPRAGTPGFRAPEVLTKCPNQTTAIDMWSAGVIFLSLLSGRYPFYKASDDLTALAQIMTIRGSRETIQAAKTFGKSILCSKEVPAQDLRKLCERLRGMDSSTPKLTSDIQGHASHQPAISEKTDHKASCLVQTPPGQYSGNSFKKGDSNSCEHCFDEYNTNLEGWNEVPDEAYDLLDKLLDLNPASRITAEEALLHPFFKDMSL
For B3, the binding [7] was “no binding”.
